# According to the supplement of paper PMC12067093, “Discovery and optimisation of a covalent ligand for TRIM25 and its application to targeted protein ubiquitination” (Chemical Science, 2025):
# This is one part of the list.
# Compound: Cc1cc(ccc1-c1ccccc1)C(=O)N1CCCN(CC1)C(=O)CCl [compound 10]
# Test: probe-labelled cysteine peptide fold change vs DMSO (competition) (log2 fold change); higher = less target engagement (more negative = stronger competition)
# Conditions: THP-1, incubation time: 4 h
# 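Also: competitive profiling in live THP-1 cells: cysteine peptides tagged with an iodoacetamide desthiobiotin (IA-DTB) probe, intensity after compound treatment relative to DMSO-treated cells.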
Target,probe-labelled cysteine peptide fold change (10 µM),probe-labelled cysteine peptide fold change (50 µM)
PTDSS1_P48651_153_EADVMEYAVNCHVITWER (UniProt P48651),0.383,0.359
PSME4_Q14997_958_TLTVEGCEYK (UniProt Q14997),-0.00149,0.216
PTK2B_Q14289_180_VSEGMALQLGCLELR (UniProt Q14289),-0.0295,0.0688
PSMG2_Q969U7_168_CIPEIDDSEFCIR (UniProt Q969U7),-0.105,0.00831
PTPRF_P10586_107_VQRDEAIYECTATNSLGEINTSAK (UniProt P10586),-0.404,-0.916
PSMA7_O14818_70_ICALDDNVCMAFAGLTADAR (UniProt O14818),0.412,0.268
PSMC1_P62191_399_AICTEAGLMALR (UniProt P62191),0.0866,0.0812
PSMB8_P28062_160_LLSNMMCQYR (UniProt P28062),0.0795,-0.168
PTK2B_Q14289_744_LQFQVPEGLCASSPTLTSPMEYPSPVNSLHTPPLHR (UniProt Q14289),-0.0815,-0.366
PUS10_Q3MIT2_21_HVAQLLLNTGTCPR (UniProt Q3MIT2),0.0888,-0.105
PTGES3_Q15185_76_SILCCLR (UniProt Q15185),-0.111,-0.338
PSMB2_P49721_46_ILLLCVGEAGDTVQFAEYIQK (UniProt P49721),0.389,0.337
PTPN23_Q9H3S7_697_TQSTCQAR (UniProt Q9H3S7),-0.0223,0.102
PTPMT1_Q8WUK0_127_YQSLGQCVYVHCK (UniProt Q8WUK0),0.0664,0.117

# A different layout for part of the listing above:
Target | probe-labelled cysteine peptide fold change (10 µM) | probe-labelled cysteine peptide fold change (50 µM)
PTGES3_Q15185_76_SILCCLR (UniProt Q15185) | -0.111 | -0.338
PSMB2_P49721_46_ILLLCVGEAGDTVQFAEYIQK (UniProt P49721) | 0.389 | 0.337
